Results taken from patent US7745377B2 (priority 2000, dated 2010).

Experiment: general procedure: Boc solid-phase peptide synthesis; TAMPAL thioester-linker resin; in situ neutralization protocols; DIC/N-hydroxysuccinimide for the SAOD residue
Conditions: conjugation step

Work on NH2-AKAARAAAAK*AARACA-CO2H yielded a conjugation yield of 90% and a conjugation yield (recovered yield) of 70%.

In the case of “SAOD-KKKEKERPEISLPSDFEHTIH-VGFDACTGEFTGMPEQWARLLQT”, the conjugation yield is reported as “˜50% yield by HPLC quantitation” and the difficulty met is reported as “isolation of labeled SAOD-PBD by RP-HPLC proved difficult”.

With “labeled LY-(SAOD)-AGCEYRIDRVRLFVDKLDNIAQVPRVGAAHHHHHH” the conjugation yield was “approximately 50%” and the difficulty met was “it was difficult to achieve high yields”.
